# Laboratory results from PMC10163288.
# The other results are listed elsewhere or left out.
# B1: il2ra_site2_2erj_normal_mot_c2bf78bdce995293a161f7082e24b401_0001_af2_000000082_0001_17_32_H_._HHH_b1_05222_0001_0000200027_0000001_0 (protein)
# chain: SSSSSSLEELYELANEILEALQRGDPEEVEELLREAEELARELDSPNAEEIVKWLEEHLSSSSSS
# B2: il2ra_site2_3nfp_normal_mot_HHH_b2_07129_000000128_0001_19_36_H_._HHH_b2_06118_af2_0001_0000300008_0000001_1_af2pred_0001_af2pred_1_swapped (protein)
# chain: SSSSDEEERLRELEELLEELKKEGDEEELRKVARELAQLAYKLNDHEAFALAALILEELLSSSSS
# B3: il2ra_site1_3nfp_sap_20_mot_HHH_b2_07201_af2_000000232_0001_1_20_H_._HHH_b1_01113_af2_0001_0000400072_0000001_1_0001_af2pred_0001_af2pred_swapped (protein)
# chain: SEEFAIERLLEELQRLPDPRVREIVEEVKELLRQGDPEKALELLEELAEELGSPKLKRYLELIEK
# B4: il2ra_site1_2b5i_normal_mot_HHH_b1_02271_000000068_0001_1_16_H_._HHH_b1_08580_af2_0001_0000400029_0000001_0_af2pred_dldesign_0_af2pred (protein)
# chain: SSSSSSRREFMEKLEELYKEYEKTKNPELKKKIDELIAEARAAGNPRLIRFGDFVRDLLESSSSS
# B5: il2ra_site2_2erj_sap_28_mot_64bd02d26d05ce9f1a62b616cea0b888_0001_af2_000000029_0001_36_49_H_._HHH_b2_05867_0001_0000200024_0000001_0_0001_af2pred_0001_1_af2pre … (protein)
# chain: SSSSDEEREEAERLLEEAERLLEEGNPEEAEKLLREAFQLAMRGGDEELAHKIARALLLFFSSSS
# B6: il2ra_site2_3nfp_sap_19_mot_HHH_b1_03376_000000004_0001_41_55_H_._88162e6262ef81793ed720f4f561f318_0001_0001_0000800035_0000001_0_0001_af2pred_0001_1_af2pred_sw … (protein)
# chain: SSDEEQEESEELKELIREALEKNDDEKLRKLIKEAASFALQLNDEELLEFASEARALLAKLRLSS
# B7: il2ra_site2_2erj_normal_mot_HHH_b2_06646_af2_000000081_0001_19_36_H_._HHH_b2_01016_0001_0000100001_0000001_0_1_af2pred_0001_af2pred (protein)
# chain: SSSSSSSEEEEVERLLEEAKKIPDLREALKALQKADKIAAESNNDELFELVQEVFKELSSSSSSS
# B8: il2ra_site1_1z92_sap_13_mot_HHH_b1_01057_000000284_0001_42_56_H_._HHH_b2_02220_0001_0000100004_0000001_0_0001 (protein)
# chain: SSSSSAEMSIELALRVIRRLRERGDEEKVRKWLEFVKRQAKILNDEEAERLVEELEEELRSSSSS
# B9: il2ra_site2_2erj_normal_mot_HHH_b1_03609_af2_000000077_0001_42_55_H_._HHH_b1_07745_0001_0000100001_0000001_0 (protein)
# chain: SSSSSSEEEERIEELLEEAKRTEDPEEVEKLLREASELAFHANNFELWSEVSEVFRKLASSSSSS
# B10: il2ra_site2_3nfp_normal_mot_HHH_b1_02297_000000279_0001_41_58_H_._HHH_b1_08162_0001_0000100002_0000001_0_af2pred_0001_af2pred (protein)
# chain: SSSSSEEVEELLRQIEELLEEGDEEEVLKLLRRVARLAFRLNNEELFRAVLELAEELAELSSSSS
# Target: il2ra, P01589
# Experiment: yeast display titration
row,Binder,apparent Kd
1,B1,inactive: no binding seen
2,B2,inactive: no binding seen
3,B3,inactive: no binding seen
4,B4,inactive: no binding seen
5,B5,inactive: no binding seen
6,B6,inactive: no binding seen
7,B7,inactive: no binding seen
8,B8,inactive: no binding seen
9,B9,inactive: no binding seen
10,B10,inactive: no binding seen

# Given tab-delimited: entries from further up.
row	Binder	apparent Kd
8	B8	inactive: no binding seen
9	B9	inactive: no binding seen
